The other results are listed elsewhere or left out.
How the values were obtained:
Test in all cases: log2 fold change, soluble protein after heating vs DMSO (PISA); higher = thermal stabilisation; K562 lysate, 10 uM; active = over 0.2 and 3.5 SD of the protein, either way, in both replicates (recomputed)
alvocidib = compound: CN1CC[C@H](c2c(O)cc(O)c3c(=O)cc(-c4ccccc4Cl)oc23)[C@H](O)C1 [alvocidib]
In short: (§1)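 Dounce homogenisation of K562 pellets in PBS pH 7.4 with 1 mM MgCl2 produced a crude extract, used at 1 mg/mL protein. Exposure to 10 μM compound lasted 30 min, and aliquots were then heated for 3 min across 48°C-58°C, pooled and brought to 0.5% NP-40 at 4°C. The supernatant after 21,000xg for 90 min was quantified by TMTpro 16plex LC-MS/MS with channel sums equalised. Duplicate values are given as log-two fold change in thermal stability relative to solvent controls.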

Chains of the proteins cited; added tags and fusions are not shown. Lines headed by an entry give the natural chain unless they say otherwise; changes in a name come on top.
UniProt P27701: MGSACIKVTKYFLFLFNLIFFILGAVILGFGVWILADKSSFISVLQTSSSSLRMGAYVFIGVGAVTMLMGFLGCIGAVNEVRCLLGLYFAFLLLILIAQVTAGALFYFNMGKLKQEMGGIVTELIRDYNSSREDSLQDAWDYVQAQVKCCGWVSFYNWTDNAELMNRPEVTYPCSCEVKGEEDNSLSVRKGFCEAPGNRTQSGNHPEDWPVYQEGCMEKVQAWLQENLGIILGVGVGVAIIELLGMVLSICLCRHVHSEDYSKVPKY
UniProt Q8TCZ2: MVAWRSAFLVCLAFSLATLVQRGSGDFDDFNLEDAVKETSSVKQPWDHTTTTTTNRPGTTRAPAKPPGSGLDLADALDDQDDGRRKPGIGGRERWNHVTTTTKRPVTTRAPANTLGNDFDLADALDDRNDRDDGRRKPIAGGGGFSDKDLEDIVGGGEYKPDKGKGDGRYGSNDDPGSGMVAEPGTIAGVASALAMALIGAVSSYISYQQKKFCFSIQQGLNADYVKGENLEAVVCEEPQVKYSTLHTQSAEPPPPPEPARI
UniProt Q86XR8: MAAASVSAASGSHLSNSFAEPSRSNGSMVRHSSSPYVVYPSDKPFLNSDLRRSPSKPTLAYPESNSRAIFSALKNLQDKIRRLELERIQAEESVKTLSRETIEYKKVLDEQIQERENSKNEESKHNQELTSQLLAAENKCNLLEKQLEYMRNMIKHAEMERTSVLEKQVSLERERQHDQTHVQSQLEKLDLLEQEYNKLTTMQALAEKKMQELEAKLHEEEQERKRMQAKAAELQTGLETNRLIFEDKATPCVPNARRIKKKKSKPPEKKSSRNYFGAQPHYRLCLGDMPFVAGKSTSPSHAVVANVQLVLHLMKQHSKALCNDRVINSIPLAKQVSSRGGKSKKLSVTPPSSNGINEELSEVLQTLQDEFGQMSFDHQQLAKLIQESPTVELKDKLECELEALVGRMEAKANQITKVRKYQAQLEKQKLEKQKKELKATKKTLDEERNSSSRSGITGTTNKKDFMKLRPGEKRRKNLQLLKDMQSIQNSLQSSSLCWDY
UniProt Q9UHN6: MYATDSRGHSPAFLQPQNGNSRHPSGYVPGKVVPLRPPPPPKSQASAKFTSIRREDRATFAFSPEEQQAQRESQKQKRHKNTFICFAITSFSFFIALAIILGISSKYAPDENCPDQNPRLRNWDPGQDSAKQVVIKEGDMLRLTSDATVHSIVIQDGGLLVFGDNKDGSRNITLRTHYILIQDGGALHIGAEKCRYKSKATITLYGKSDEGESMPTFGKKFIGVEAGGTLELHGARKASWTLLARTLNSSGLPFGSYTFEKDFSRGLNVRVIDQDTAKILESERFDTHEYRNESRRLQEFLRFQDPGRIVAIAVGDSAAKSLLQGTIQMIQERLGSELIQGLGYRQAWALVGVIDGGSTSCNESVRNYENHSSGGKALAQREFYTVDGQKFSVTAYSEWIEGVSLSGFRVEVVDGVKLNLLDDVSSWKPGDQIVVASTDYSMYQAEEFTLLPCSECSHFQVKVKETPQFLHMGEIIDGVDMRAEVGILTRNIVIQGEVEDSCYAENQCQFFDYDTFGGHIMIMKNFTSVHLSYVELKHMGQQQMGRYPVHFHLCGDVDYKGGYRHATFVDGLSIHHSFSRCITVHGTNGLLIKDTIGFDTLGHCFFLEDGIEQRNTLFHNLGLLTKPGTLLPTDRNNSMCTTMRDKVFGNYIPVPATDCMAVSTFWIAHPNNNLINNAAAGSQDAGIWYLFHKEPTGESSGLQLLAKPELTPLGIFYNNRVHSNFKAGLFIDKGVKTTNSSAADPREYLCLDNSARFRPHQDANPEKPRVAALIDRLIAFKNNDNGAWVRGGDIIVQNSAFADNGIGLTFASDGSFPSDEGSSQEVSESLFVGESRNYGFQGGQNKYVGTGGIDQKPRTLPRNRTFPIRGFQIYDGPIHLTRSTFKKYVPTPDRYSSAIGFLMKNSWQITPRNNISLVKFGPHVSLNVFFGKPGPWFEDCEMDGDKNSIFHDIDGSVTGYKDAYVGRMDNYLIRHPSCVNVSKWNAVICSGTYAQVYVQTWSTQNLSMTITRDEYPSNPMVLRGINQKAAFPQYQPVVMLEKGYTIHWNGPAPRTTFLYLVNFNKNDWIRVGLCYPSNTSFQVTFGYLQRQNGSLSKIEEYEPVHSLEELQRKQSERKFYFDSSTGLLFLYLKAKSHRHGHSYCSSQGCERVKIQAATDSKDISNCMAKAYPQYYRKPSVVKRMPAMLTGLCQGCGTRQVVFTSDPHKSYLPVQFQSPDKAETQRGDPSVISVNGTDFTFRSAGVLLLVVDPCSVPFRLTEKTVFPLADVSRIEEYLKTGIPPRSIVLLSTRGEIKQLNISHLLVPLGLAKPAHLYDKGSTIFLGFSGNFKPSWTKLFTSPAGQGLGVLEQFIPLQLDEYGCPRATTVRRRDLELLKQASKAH
UniProt Q711Q0: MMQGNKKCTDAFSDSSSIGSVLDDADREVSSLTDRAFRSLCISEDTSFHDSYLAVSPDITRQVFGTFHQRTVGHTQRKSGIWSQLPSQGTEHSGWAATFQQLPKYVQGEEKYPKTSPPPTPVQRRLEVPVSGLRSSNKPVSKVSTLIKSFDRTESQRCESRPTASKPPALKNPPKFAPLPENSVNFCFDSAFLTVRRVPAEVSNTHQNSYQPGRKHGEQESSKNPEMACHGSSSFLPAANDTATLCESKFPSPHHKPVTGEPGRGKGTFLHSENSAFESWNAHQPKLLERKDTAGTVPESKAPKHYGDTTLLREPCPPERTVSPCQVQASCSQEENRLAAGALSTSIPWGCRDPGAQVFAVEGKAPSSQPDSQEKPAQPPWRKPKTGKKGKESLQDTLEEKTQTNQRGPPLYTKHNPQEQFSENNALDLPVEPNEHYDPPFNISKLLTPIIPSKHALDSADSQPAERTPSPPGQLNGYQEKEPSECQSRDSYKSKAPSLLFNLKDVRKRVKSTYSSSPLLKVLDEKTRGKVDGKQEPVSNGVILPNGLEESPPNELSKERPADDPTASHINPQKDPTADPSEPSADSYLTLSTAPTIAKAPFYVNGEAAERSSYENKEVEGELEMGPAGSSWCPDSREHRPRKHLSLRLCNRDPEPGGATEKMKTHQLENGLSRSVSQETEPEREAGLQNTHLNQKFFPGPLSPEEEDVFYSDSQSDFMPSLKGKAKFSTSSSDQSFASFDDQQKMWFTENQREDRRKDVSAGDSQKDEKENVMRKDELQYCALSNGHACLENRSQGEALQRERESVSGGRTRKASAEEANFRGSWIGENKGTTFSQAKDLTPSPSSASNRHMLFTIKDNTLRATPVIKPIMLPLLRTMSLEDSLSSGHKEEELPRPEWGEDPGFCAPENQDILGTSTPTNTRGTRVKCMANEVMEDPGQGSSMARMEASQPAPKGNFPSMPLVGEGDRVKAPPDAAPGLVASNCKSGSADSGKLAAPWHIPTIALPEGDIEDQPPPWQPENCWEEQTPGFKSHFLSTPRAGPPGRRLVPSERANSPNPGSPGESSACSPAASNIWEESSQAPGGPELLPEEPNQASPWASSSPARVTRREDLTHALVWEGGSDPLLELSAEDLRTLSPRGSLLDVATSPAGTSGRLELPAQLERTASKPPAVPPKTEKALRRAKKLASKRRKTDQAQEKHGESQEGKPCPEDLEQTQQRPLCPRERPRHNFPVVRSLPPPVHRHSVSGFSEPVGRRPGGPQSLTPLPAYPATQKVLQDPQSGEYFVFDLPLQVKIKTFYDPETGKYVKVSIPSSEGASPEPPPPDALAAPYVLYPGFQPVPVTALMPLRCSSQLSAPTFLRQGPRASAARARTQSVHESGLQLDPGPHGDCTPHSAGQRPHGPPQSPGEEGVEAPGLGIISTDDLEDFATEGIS
UniProt Q00536: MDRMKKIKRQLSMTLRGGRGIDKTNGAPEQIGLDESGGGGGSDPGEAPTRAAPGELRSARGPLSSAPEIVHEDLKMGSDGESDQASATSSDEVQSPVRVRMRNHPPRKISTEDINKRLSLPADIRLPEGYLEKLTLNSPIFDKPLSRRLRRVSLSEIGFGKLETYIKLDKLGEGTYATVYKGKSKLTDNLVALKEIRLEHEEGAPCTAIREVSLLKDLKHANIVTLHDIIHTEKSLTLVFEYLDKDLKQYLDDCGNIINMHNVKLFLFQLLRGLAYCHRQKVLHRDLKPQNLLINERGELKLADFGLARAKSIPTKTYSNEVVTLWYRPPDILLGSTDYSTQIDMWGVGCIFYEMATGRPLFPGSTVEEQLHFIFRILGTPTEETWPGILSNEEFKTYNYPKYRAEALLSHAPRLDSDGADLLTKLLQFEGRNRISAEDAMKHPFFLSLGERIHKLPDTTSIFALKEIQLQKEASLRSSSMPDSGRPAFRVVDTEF
UniProt Q9BWV3: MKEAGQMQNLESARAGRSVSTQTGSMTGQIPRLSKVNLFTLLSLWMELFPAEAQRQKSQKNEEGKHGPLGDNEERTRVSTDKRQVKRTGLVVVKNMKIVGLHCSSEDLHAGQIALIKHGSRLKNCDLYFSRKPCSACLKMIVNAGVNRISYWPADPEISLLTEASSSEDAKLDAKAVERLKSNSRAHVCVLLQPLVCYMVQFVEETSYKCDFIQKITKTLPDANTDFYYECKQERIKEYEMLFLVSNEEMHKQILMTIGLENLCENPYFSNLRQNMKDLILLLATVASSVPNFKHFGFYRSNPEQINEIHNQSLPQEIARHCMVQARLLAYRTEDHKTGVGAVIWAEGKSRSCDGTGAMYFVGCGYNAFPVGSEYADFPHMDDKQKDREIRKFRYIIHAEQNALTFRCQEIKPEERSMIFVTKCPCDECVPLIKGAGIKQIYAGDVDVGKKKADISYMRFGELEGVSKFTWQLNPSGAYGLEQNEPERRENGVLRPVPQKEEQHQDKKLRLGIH
UniProt Q16667, whole entry, looked up: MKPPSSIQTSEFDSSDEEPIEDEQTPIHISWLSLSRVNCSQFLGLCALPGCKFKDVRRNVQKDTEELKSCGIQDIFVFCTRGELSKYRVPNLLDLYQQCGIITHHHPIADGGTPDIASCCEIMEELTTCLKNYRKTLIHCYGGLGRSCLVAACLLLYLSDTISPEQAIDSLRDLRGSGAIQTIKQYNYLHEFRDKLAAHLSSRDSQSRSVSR
UniProt A8MT69: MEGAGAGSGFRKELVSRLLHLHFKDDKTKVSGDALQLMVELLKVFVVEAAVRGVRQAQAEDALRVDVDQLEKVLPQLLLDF
UniProt Q99741: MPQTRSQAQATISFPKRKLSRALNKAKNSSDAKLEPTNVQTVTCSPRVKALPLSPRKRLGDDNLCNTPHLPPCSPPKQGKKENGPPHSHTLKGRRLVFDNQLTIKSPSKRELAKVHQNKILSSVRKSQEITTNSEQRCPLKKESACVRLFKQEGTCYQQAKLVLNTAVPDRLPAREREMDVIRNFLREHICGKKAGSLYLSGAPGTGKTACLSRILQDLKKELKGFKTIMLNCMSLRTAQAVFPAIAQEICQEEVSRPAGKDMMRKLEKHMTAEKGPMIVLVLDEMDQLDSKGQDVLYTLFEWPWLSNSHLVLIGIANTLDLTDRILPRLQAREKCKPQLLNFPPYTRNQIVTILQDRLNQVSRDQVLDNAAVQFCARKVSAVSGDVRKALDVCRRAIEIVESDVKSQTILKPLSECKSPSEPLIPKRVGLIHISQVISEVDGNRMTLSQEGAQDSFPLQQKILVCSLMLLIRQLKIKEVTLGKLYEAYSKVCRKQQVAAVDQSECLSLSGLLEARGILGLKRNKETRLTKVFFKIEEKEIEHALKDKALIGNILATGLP
UniProt Q9P209, whole entry, looked up: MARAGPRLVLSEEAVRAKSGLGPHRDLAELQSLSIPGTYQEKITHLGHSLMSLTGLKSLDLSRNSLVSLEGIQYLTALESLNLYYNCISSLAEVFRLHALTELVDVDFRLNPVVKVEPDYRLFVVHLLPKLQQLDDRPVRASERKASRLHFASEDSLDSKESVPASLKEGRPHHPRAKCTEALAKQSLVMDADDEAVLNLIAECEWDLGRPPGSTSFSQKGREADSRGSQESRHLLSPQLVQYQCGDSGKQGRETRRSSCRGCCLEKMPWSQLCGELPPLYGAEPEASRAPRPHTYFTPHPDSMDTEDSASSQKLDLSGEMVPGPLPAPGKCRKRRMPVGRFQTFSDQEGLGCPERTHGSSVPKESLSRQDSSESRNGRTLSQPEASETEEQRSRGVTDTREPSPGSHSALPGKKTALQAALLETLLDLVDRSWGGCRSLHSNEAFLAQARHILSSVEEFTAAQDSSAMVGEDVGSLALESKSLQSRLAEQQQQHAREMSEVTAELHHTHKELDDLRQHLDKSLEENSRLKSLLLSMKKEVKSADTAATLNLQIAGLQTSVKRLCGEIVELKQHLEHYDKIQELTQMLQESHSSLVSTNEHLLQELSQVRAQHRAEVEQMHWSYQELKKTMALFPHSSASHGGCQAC
UniProt Q9NRR8: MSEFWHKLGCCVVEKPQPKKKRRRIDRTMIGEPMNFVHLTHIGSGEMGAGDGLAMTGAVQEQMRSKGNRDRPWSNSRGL

Tubastatin A = compound: CN1CCc2c(c3ccccc3n2Cc2ccc(C(=O)NO)cc2)C1 [Tubastatin A]
In short: as §1

[1] = compound: CNC(=O)C1=CC=CC=C1NC2=NC(=NC=C2Cl)NC3=C(C=C(C=C3)N4CCOCC4)OC
In short: as §1

[2] = compound: CNc1nc(-c2ccc3c(N)n[nH]c3c2)cc(N2C[C@@H](C(=O)NC3CCCCC3)CC[C@H]2C)n1
In short: as §1

encorafenib = compound: COC(=O)N[C@@H](C)CNc1nccc(-c2cn(C(C)C)nc2-c2cc(Cl)cc(NS(C)(=O)=O)c2F)n1 [encorafenib]
In short: as §1

[3] = compound: COC(=O)[C@H](CCSC)NC(=O)C1=C(C=C(C=C1)NC[C@H](CS)N)C2=CC=CC=C2
In short: as §1

[4] = compound: COc1cc2nc(-c3cc(F)ccc3O)nc(N[C@@H]3CNC[C@H]3C(C)(C)O)c2cc1OC
In short: as §1

lapatinib = compound: CS(=O)(=O)CCNCc1ccc(-c2ccc3ncnc(Nc4ccc(OCc5cccc(F)c5)c(Cl)c4)c3c2)o1 [lapatinib]
In short: as §1

pictilisib = compound: CS(=O)(=O)N1CCN(Cc2cc3nc(-c4cccc5[nH]ncc45)nc(N4CCOCC4)c3s2)CC1 [pictilisib]
In short: as §1

crizotinib = compound: C[C@@H](Oc1cc(-c2cnn(C3CCNCC3)c2)cnc1N)c1c(Cl)ccc(F)c1Cl [crizotinib]
In short: as §1

[5] = compound: C[C@H](C1=CC=C(C=C1)C(=O)NC2=C3C=CNC3=NC=C2)N
In short: as §1

duvelisib = compound: C[C@H](Nc1ncnc2nc[nH]c12)c1cc2cccc(Cl)c2c(=O)n1-c1ccccc1 [duvelisib]
In short: as §1

gandotinib = compound: Cc1cc(Nc2cc(CN3CCOCC3)c3nc(C)c(Cc4ccc(Cl)cc4F)n3n2)n[nH]1 [gandotinib]
In short: as §1

tozasertib = compound: Cc1cc(Nc2cc(N3CCN(C)CC3)nc(Sc3ccc(NC(=O)C4CC4)cc3)n2)n[nH]1 [tozasertib]
In short: as §1

doramapimod = compound: Cc1ccc(-n2nc(C(C)(C)C)cc2NC(=O)Nc2ccc(OCCN3CCOCC3)c3ccccc23)cc1 [doramapimod]
In short: as §1

bafetinib = compound: Cc1ccc(NC(=O)c2ccc(CN3CC[C@H](N(C)C)C3)c(C(F)(F)F)c2)cc1Nc1nccc(-c2cncnc2)n1 [bafetinib]
In short: as §1

[6] = compound: Cc1cccc(CC(=O)N2CCc3c2ccc(-c2cn(C)c4ncnc(N)c24)c3F)n1
In short: as §1

alisertib = compound: COc1cc(Nc2ncc3c(n2)-c2ccc(Cl)cc2C(c2c(F)cccc2OC)=NC3)ccc1C(=O)O [alisertib]
In short: as §1

gefitinib = compound: COc1cc2ncnc(Nc3ccc(F)c(Cl)c3)c2cc1OCCCN1CCOCC1 [gefitinib]
In short: as §1

defactinib = compound: CNC(=O)c1ccc(Nc2ncc(C(F)(F)F)c(NCc3nccnc3N(C)S(C)(=O)=O)n2)cc1 [defactinib]
In short: as §1

Measured: log2 fold change

CERS5 (UniProt Q8N5B7)
inactive: alvocidib 0.026 | Tubastatin A 0.021 | [1] -0.032 | [2] 0.039 | encorafenib -0.034 | [3] -0.061 | [4] -0.009 | lapatinib 0.041 | pictilisib -0.09 | crizotinib 0.077 | [5] -0.066 | duvelisib 0.025 | gandotinib 0.067 | tozasertib 0.046 | doramapimod -0.043 | bafetinib 0.012 | [6] 0.033

CENPM (UniProt Q9NSP4)
inactive: alvocidib -0.1 | Tubastatin A 0.029 | [1] 0.04 | [2] 0.199 | encorafenib -0.128 | [3] 0.105 | alisertib -0.133 | gefitinib -0.057 | pictilisib -0.1 | crizotinib -0.291 | [5] -0.06 | duvelisib 0.132 | gandotinib -0.114 | tozasertib 0.253 | doramapimod 0.083 | bafetinib -0.111 | [6] 0.069

CEP63 (UniProt Q96MT8)
inactive: alvocidib -0.091 | [1] -0.129 | [2] -0.093 | encorafenib 0.069 | [3] 0.048 | alisertib 0.089 | [4] -0.021 | gefitinib -0.052 | lapatinib -0.12 | [5] -0.463 | duvelisib 0.031 | gandotinib 0.211 | tozasertib -0.016 | [6] 0.191

CENPV (UniProt Q7Z7K6)
inactive: alvocidib -0.15 | Tubastatin A -0.458 | defactinib 0.117 | encorafenib 0.323 | [3] -0.045 | alisertib -0.205 | gefitinib 0.789 | pictilisib 0.02 | crizotinib -0.119 | [5] 0.089 | gandotinib -0.193 | tozasertib 0.094 | doramapimod -0.149 | bafetinib -0.163 | [6] -0.36

CD9 (UniProt P21926)
inactive: alvocidib -0.016 | defactinib 0.041 | [2] 0.026 | encorafenib 0.064 | [3] 0.107 | [5] 0.044 | duvelisib 0.109 | gandotinib 0.108 | tozasertib -0.148 | [6] 0.138

CD82 (UniProt P27701)
inactive: alvocidib -0.141 | Tubastatin A 0.037 | [1] -0.031 | defactinib -0.097 | alisertib -0.169 | [4] -0.023 | gefitinib -0.084 | lapatinib -0.024 | [5] -0.098 | gandotinib 0.192 | [6] 0.029

CEP41 (UniProt Q9BYV8)
inactive: alvocidib 0.042 | [1] 0.083 | defactinib 0.015 | [2] 0.073 | encorafenib 0.001 | [3] -0.139 | alisertib 0.029 | [4] -0.059 | gefitinib 0.011 | lapatinib -0.017 | pictilisib 0.039 | crizotinib 0.062 | [5] 0.047 | duvelisib -0.013 | gandotinib 0.003 | tozasertib 0.086 | doramapimod 0.044 | bafetinib -0.067 | [6] 0.007

CD99L2 isoform 5 (UniProt Q8TCZ2)
inactive: alvocidib -0.115 | [1] -0.08 | defactinib -0.096 | [2] 0.084 | alisertib 0.161 | [4] -0.051 | gefitinib 0.003 | lapatinib -0.13 | crizotinib 0.021 | [5] 0.089 | duvelisib -0.098 | gandotinib 0.004 | doramapimod -0.096 | [6] -0.004

CDK8 (UniProt P49336)
active: alvocidib 0.384
inactive: Tubastatin A -0.059 | [1] -0.065 | defactinib -0.101 | [2] 0.083 | alisertib -0.052 | [4] -0.047 | gefitinib 0.07 | lapatinib -0.035 | pictilisib -0.033 | crizotinib -0.032 | [5] 0.129 | duvelisib -0.075 | gandotinib -0.065 | doramapimod 0.322 | bafetinib -0.043 | [6] 0.119

CDC27 (UniProt G5EA36)
inactive: alvocidib 0.013 | Tubastatin A -0.018 | [1] 0.019 | [2] -0.089 | alisertib -0.056 | [4] 0.064 | gefitinib -0.168 | lapatinib -0.063 | pictilisib -0.018 | crizotinib 0.09 | [5] -0.057 | duvelisib 0.047 | gandotinib -0.139 | doramapimod -0.161 | bafetinib -0.032 | [6] -0.033

CEP57 (UniProt Q86XR8)
inactive: alvocidib 0.118 | [1] -0.299 | encorafenib 0.16 | [3] 0.05 | [5] 0.098 | gandotinib 0.019 | tozasertib 0.019 | [6] 0.036

CEMIP2 (UniProt Q9UHN6)
inactive: alvocidib -0.072 | Tubastatin A 0.045 | [1] 0.066 | defactinib 0.086 | [2] 0.033 | encorafenib -0.03 | [3] -0.091 | [4] 0.039 | lapatinib -0.098 | pictilisib -0.069 | crizotinib 0.006 | [5] -0.087 | duvelisib 0.022 | gandotinib 0.067 | tozasertib -0.037 | doramapimod 0.001 | bafetinib 0.005 | [6] -0.042

CEFIP (UniProt Q711Q0)
inactive: alvocidib -0.033 | Tubastatin A 0.08 | [1] -0.01 | defactinib 0.128 | encorafenib 0.156 | [3] -0.097 | alisertib -0.002 | [4] 0.007 | gefitinib -0.074 | lapatinib -0.042 | pictilisib -0.044 | crizotinib -0.033 | [5] -0.05 | gandotinib 0.081 | tozasertib 0.069 | doramapimod 0.008 | bafetinib 0.02 | [6] 0.019

CDC14A isoform 2 (UniProt Q9UNH5)
inactive: Tubastatin A 0.272 | alisertib 0.075 | [4] 0.019 | gefitinib 0.078 | lapatinib 0.062 | crizotinib 0.031 | doramapimod 0.108

CDK16 isoform 2 (UniProt Q00536)
inactive: Tubastatin A 0.029 | [1] 0.05 | defactinib 0.285 | [2] 0.106 | encorafenib 0.04 | [3] -0.024 | alisertib -0.014 | [4] 0.008 | gefitinib -0.026 | lapatinib 0.046 | crizotinib 0.063 | [5] -0.016 | duvelisib 0.043 | doramapimod 0.012 | bafetinib -0.007 | [6] -0.05
active: gandotinib 0.533

CDCA4 (UniProt Q9BXL8)
inactive: Tubastatin A -0.031 | defactinib -0.021 | [2] -0.044 | duvelisib 0.031

CDADC1 (UniProt Q9BWV3)
inactive: crizotinib 0.01 | doramapimod 0.087

3 records drawn at random from the list so far:
CEMIP2 (UniProt Q9UHN6)
inactive: alvocidib -0.072 | Tubastatin A 0.045 | [1] 0.066 | defactinib 0.086 | [2] 0.033 | encorafenib -0.03 | [3] -0.091 | [4] 0.039 | lapatinib -0.098 | pictilisib -0.069 | crizotinib 0.006 | [5] -0.087 | duvelisib 0.022 | gandotinib 0.067 | tozasertib -0.037 | doramapimod 0.001 | bafetinib 0.005 | [6] -0.042

CDC14A isoform 2 (UniProt Q9UNH5)
inactive: Tubastatin A 0.272 | alisertib 0.075 | [4] 0.019 | gefitinib 0.078 | lapatinib 0.062 | crizotinib 0.031 | doramapimod 0.108

CERS5 (UniProt Q8N5B7)
inactive: alvocidib 0.026 | Tubastatin A 0.021 | [1] -0.032 | [2] 0.039 | encorafenib -0.034 | [3] -0.061 | [4] -0.009 | lapatinib 0.041 | pictilisib -0.09 | crizotinib 0.077 | [5] -0.066 | duvelisib 0.025 | gandotinib 0.067 | tozasertib 0.046 | doramapimod -0.043 | bafetinib 0.012 | [6] 0.033

Next part:

CEP85L isoform 4 (UniProt Q5SZL2)
inactive: [1] -0.138 | defactinib -0.112 | crizotinib -0.011 | doramapimod 0.013

CDC25A (UniProt P30304)
active: Tubastatin A -0.406
inactive: [1] -0.121 | [2] 0.035 | alisertib 0.005 | [4] 0.019 | gefitinib -0.002 | lapatinib -0.016 | duvelisib -0.014 | doramapimod 0.114

CFL1 (UniProt E9PP50)
inactive: encorafenib 0.113 | [3] 0.108 | [4] 0.089 | lapatinib -0.143 | pictilisib -0.316 | tozasertib -0.214 | bafetinib -0.46

CEP162 (UniProt Q5TB80)
inactive: crizotinib 0.013 | doramapimod 0.002

CDC42EP2 (UniProt O14613)
inactive: Tubastatin A 0.028 | defactinib 0.143 | crizotinib -0.023 | doramapimod -0.072

CEP68 (UniProt Q76N32)
inactive: [1] -0.024 | [2] 0.032 | encorafenib 0.052 | [3] -0.01 | duvelisib 0.047 | tozasertib -0.03

CEP164 (UniProt Q9UPV0)
inactive: [1] 0.138 | [4] 0.067 | lapatinib -0.077 | pictilisib 0.096 | bafetinib 0.069

CENPT (UniProt Q96BT3)
inactive: [1] 0.21

CDC37 (UniProt K7EL68)
inactive: alvocidib -0.054 | defactinib 0.01 | pictilisib -0.211 | crizotinib 0.021 | [5] 0.011 | gandotinib -0.038 | doramapimod -0.035 | bafetinib -0.096 | [6] 0.003

CDKN3 (UniProt Q16667)
inactive: alvocidib 0.001 | encorafenib -0.084 | [3] 0.044 | pictilisib -0.023 | [5] 0.039 | gandotinib -0.048 | tozasertib 0.134 | bafetinib -0.042 | [6] 0.003

CENPX (UniProt A8MT69)
inactive: Tubastatin A 0.09 | crizotinib 0.054 | doramapimod -0.082

CD84 (UniProt Q9UIB8)
inactive: alvocidib 0.042 | pictilisib -0.034 | [5] 0.095 | gandotinib -0.01 | bafetinib 0.006 | [6] 0.012

CDC6 (UniProt Q99741)
inactive: Tubastatin A -0.006 | [1] -0.007 | [2] -0.36 | alisertib -0.063 | gefitinib 0.227 | crizotinib 0.053 | duvelisib -0.084 | doramapimod 0.239

CEP72 (UniProt Q9P209)
inactive: Tubastatin A -0.017 | [1] -0.092 | [2] 0.086 | duvelisib 0.011

CDC42SE1 (UniProt Q9NRR8)
inactive: alvocidib 0.156 | alisertib -0.088 | [4] -0.437 | gefitinib -0.116 | lapatinib 0.066 | pictilisib 0.203 | crizotinib 0.007 | [5] -0.075 | gandotinib -0.107 | doramapimod 0.012 | bafetinib -0.213 | [6] 0.02

CFAP410 (UniProt O43822)
inactive: Tubastatin A -0.117 | [1] 0.239 | defactinib -0.147 | encorafenib -0.017 | [3] 0.101 | alisertib -0.186 | gefitinib 0.297 | pictilisib -0.045 | crizotinib -0.095 | tozasertib 0.01 | doramapimod 0.082 | bafetinib -0.027

CELSR2 (UniProt Q9HCU4)
inactive: [1] -0.029

CDC42, A0A494C1M1
inactive: alvocidib -0.052 | alisertib -0.108 | [4] 0 | gefitinib 0.043 | lapatinib 0.005 | [5] -0.18 | gandotinib -0.233 | [6] -0.048

Reference: the supplement of paper PMC10849652
